Assay: general procedure: peptide synthesis; HBTU/DIEA (conjugation of peptide-acid to morpholino oligomer)
Conditions: conjugation step, SCX HPLC

5′-(EG3)-C+TTCGA+TAG+TG-3′-(Ac(RAhxR)4AhxB-)
final HPLC purity: 84.7%
